{"source": "patent US11795197B2", "about": "“Peptide compositions for immuno-oncology molecular imaging and targeted drug delivery” (Cedars-Sinai Medical Center, priority 2017, dated 2023)", "key": {"[1]": {"target": "T1, FPR1 receptor (Homo sapiens, UniProt P21462)", "T1 sequence (P21462 1-350)": "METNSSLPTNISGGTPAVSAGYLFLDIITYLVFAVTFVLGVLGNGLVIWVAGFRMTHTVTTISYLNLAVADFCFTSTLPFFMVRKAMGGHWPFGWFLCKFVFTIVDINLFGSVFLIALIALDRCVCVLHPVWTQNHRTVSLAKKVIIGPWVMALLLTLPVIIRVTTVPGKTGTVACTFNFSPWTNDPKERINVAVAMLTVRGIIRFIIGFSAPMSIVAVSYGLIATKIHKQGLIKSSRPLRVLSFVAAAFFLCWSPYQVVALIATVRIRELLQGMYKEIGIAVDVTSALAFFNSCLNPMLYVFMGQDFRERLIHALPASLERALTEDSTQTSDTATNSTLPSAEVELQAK", "assay": "Binding of the peptide to FPR1 receptor"}, "[2]": {"target": "T1, FPR1 receptor", "assay": "Activation of FPR1 receptor (antagonist property)", "assay_type": "biochemical", "conditions": "hexapeptide antagonist"}}, "note": "Part of at least one peptide drawing is inferred or uncertain, most often the ends. Residues, ends and D or L forms follow the SMILES beside them.", "data": [{"smiles": "CC(C)C[C@H](NC(=O)[C@H](CC(=O)O)NC(=O)[C@H](CC(C)C)NC(=O)[C@H](CC(C)C)NC(=O)[C@H](CC(=O)O)NC(=O)[C@@H](N)CC(C)C)C(=O)O", "note": "[LDLLDL, Leu-Asp-Leu-Leu-Asp-Leu] (H-LDLLDL-OH; N-terminus and C-terminus assumed)", "values": [{"measurement": "binding to FPR1 receptor", "setting": "[1]", "result": "specifically binds"}, {"measurement": "target affinity", "setting": "[1]", "result": "superior"}, {"measurement": "activation of the receptor", "setting": "[2]", "result": "does not activate"}]}]}
